Experimental data as given in the supplement of paper PMC11637464.
Where a name gives a salt, the structure may show the parent alone. Some of the results follow. Single values are uncertain, as repeats are few or missing.

Assays:
[1] = system: primary mouse Muller glia with Ascl1 overexpression; experiment: total cells recovered per well; higher = more cells recovered
[2] = system: primary mouse Muller glia with Ascl1 overexpression; experiment: Neuronal cell count fold change vs Ascl1-only control (log2 fold change); higher = more neurogenesis
[3] = system: primary mouse Muller glia with Ascl1 overexpression; experiment: progenitor-like (ProL) cell count fold change vs Ascl1-only control (log2 fold change); higher = more progenitor-like cells

Nc1ncnc2c1nc(Br)n2[C@@H]1O[C@@H]2COP(=O)(O)O[C@H]2[C@H]1O [8-Bromo-cAMP, sodium salt] (collection day: 1)
total cells recovered per well ([1]; 0.1 µM): 60 | total cells recovered per well ([1]; 1 µM): 60 | total cells recovered per well ([1]; 10 µM): 89

COC(=O)C1=C(C)NC(C)=C([N+](=O)[O-])C1c1ccccc1C(F)(F)F (stereo not drawn) (collection day: 1)
total cells recovered per well ([1]; 0.1 µM): 58 | total cells recovered per well ([1]; 1 µM): 50 | total cells recovered per well ([1]; 10 µM): 46 | Neuronal cell count fold change ([2]; 0.1 µM): -0.252 | Neuronal cell count fold change ([2]; 1 µM): -0.644 | Neuronal cell count fold change ([2]; 10 µM): -0.837

Cc1ccc(-c2cn3c4c(sc3n2)CCCC4)cc1 [Cyclic Pifithrin-alpha hydrobromide] (collection day: 2)
total cells recovered per well ([1]; 0.1 µM): 76 | Neuronal cell count fold change ([2]; 0.1 µM): -0.531 | progenitor-like (log2) ([3]; 0.1 µM): 0.236

O=C(O)c1ccc2cc(-c3ccc(O)c(C45CC6CC(CC(C6)C4)C5)c3)ccc2c1 (collection day: 1)
total cells recovered per well ([1]; 0.1 µM): 43

NC(=O)c1ccc(-c2nc(-c3ccccn3)c(-c3ccc4c(c3)OCO4)[nH]2)cc1 (collection day: 1)
total cells recovered per well ([1]; 0.1 µM): 59 | total cells recovered per well ([1]; 1 µM): 65 | total cells recovered per well ([1]; 10 µM): 64 | Neuronal cell count fold change ([2]; 0.1 µM): -0.184 | Neuronal cell count fold change ([2]; 1 µM): 0.485 | Neuronal cell count fold change ([2]; 10 µM): 0.566

Cc1ccccc1N=Nc1ccc(NC(=O)c2ccnn2C)c(C)c1 (collection day: 2)
total cells recovered per well ([1]; 0.1 µM): 85 | total cells recovered per well ([1]; 1 µM): 78 | Neuronal cell count fold change ([2]; 0.1 µM): 0 | Neuronal cell count fold change ([2]; 1 µM): 0.3

C[C@@H](N)[C@H]1CC[C@H](C(=O)Nc2ccncc2)CC1 (collection day: 1)
total cells recovered per well ([1]; 0.1 µM): 59 | progenitor-like (log2) ([3]; 0.1 µM): 0.447

c1ccc2c(Oc3nc(Nc4ccc(N5CCOCC5)cc4)c4ncn(C5CCCCC5)c4n3)cccc2c1 [Purmorphamine] (collection day: 2)
total cells recovered per well ([1]; 0.1 µM): 132 | total cells recovered per well ([1]; 1 µM): 103 | total cells recovered per well ([1]; 10 µM): 57 | Neuronal cell count fold change ([2]; 0.1 µM): 0.3 | Neuronal cell count fold change ([2]; 1 µM): -0.241 | Neuronal cell count fold change ([2]; 10 µM): -1.12

CCCC[S+]([O-])c1sc2nc(-c3cccs3)cc(-c3ccccc3)c2c1N (stereo not drawn) (collection day: 2)
total cells recovered per well ([1]; 1 µM): 120 | total cells recovered per well ([1]; 10 µM): 62 | Neuronal cell count fold change ([2]; 1 µM): 0.206 | Neuronal cell count fold change ([2]; 10 µM): -1.7 | progenitor-like (log2) ([3]; 1 µM): -0.134 | progenitor-like (log2) ([3]; 10 µM): -0.206

CC(NC(=O)C(OC(=O)C(C)NC(=O)OC(C)(C)C)C(C)C)C(=O)OC(C(=O)O)C(C)C (stereo not drawn) (collection day: 2)
total cells recovered per well ([1]; 0.1 µM): 62 | total cells recovered per well ([1]; 1 µM): 64 | total cells recovered per well ([1]; 10 µM): 95 | progenitor-like (log2) ([3]; 0.1 µM): 0.236 | progenitor-like (log2) ([3]; 1 µM): 0.123 | progenitor-like (log2) ([3]; 10 µM): 0.0931

O=C(NNc1ccccc1)c1ccncc1 [PluriSln 1] (collection day: 2)
total cells recovered per well ([1]; 0.1 µM): 69 | total cells recovered per well ([1]; 1 µM): 106 | total cells recovered per well ([1]; 10 µM): 78

CNC1CCC(N(Cc2cc(-c3ccncc3)ccc2OC)C(=O)c2sc3c(F)ccc(F)c3c2Cl)CC1 (stereo not drawn) (collection day: 2)
total cells recovered per well ([1]; 0.1 µM): 113 | total cells recovered per well ([1]; 1 µM): 83 | Neuronal cell count fold change ([2]; 0.1 µM): 0.206 | Neuronal cell count fold change ([2]; 1 µM): 0.107 | progenitor-like (log2) ([3]; 0.1 µM): 0.0317 | progenitor-like (log2) ([3]; 1 µM): 0

Nc1ncn([C@H]2C[C@H](O)[C@@H](CO)O2)c(=O)n1 [Decitabine] (collection day: 1)
progenitor-like (log2) ([3]; 0.1 µM): 0.541 | progenitor-like (log2) ([3]; 1 µM): 0.241 | progenitor-like (log2) ([3]; 10 µM): 0.541

O=C(O)C(Cc1c[nH]c2ccccc12)N1C(=O)c2ccccc2C1=O (stereo not drawn) (collection day: 2)
progenitor-like (log2) ([3]; 0.1 µM): 0.0317 | progenitor-like (log2) ([3]; 1 µM): -0.0656 | progenitor-like (log2) ([3]; 10 µM): 0.181
